From paper PMC10639076
These are yes or no findings as the source states them, for the method shown. Binding seen in cells or lysates may run through a third protein. Here binding means that the protein was enriched with, or labelled near, the bait; the list need not be complete.

Molecular target: Flag-tagged VHL (human) (UniProt P40337)
Test: affinity purification with mass spectrometry; whole cell lysates of RCC4 cells stably expressing Flag-VHL and control, immunoprecipitated with anti-Flag antibodies, LC-MS/MS

binding: binds
B1: ATF7IP (protein, UniProt Q6VMQ6 1-1270)
chain: MDSLEEPQKKVFKARKTMRVSDRQQLEAVYKVKEELLKTDVKLLNGNHENGDLDPTSPLENMDYIKDKEEVNGIEEICFDPEGSKAEWKETPCILSVNVKNKQDDDLNCEPLSPHNITPEPVSKLPAEPVSGDPAPGDLDAGDPASGVLASGDSTSGDPTSSEPSSSDAASGDATSGDAPSGDVSPGDATSGDATADDLSSGDPTSSDPIPGEPVPVEPISGDCAADDIASSEITSVDLASGAPASTDPASDDLASGDLSSSELASDDLATGELASDELTSESTFDRTFEPKSVPVCEPVPEIDNIEPSSNKDDDFLEKNGADEKLEQIQSKDSLDEKNKADNNIDANEETLETDDTTICSDRPPENEKKVEEDIITELALGEDAISSSMEIDQGEKNEDETSADLVETINENVIEDNKSENILENTDSMETDEIIPILEKLAPSEDELTCFSKTSLLPIDETNPDLEEKMESSFGSPSKQESSESLPKEAFLVLSDEEDISGEKDESEVISQNETCSPAEVESNEKDNKPEEEEQVIHEDDERPSEKNEFSRRKRSKSEDMDNVQSKRRRYMEEEYEAEFQVKITAKGDINQKLQKVIQWLLEEKLCALQCAVFDKTLAELKTRVEKIECNKRHKTVLTELQAKIARLTKRFEAAKEDLKKRHEHPPNPPVSPGKTVNDVNSNNNMSYRNAGTVRQMLESKRNVSESAPPSFQTPVNTVSSTNLVTPPAVVSSQPKLQTPVTSGSLTATSVLPAPNTATVVATTQVPSGNPQPTISLQPLPVILHVPVAVSSQPQLLQSHPGTLVTNQPSGNVEFISVQSPPTVSGLTKNPVSLPSLPNPTKPNNVPSVPSPSIQRNPTASAAPLGTTLAVQAVPTAHSIVQATRTSLPTVGPSGLYSPSTNRGPIQMKIPISAFSTSSAAEQNSNTTPRIENQTNKTIDASVSKKAADSTSQCGKATGSDSSGVIDLTMDDEESGASQDPKKLNHTPVSTMSSSQPVSRPLQPIQPAPPLQPSGVPTSGPSQTTIHLLPTAPTTVNVTHRPVTQVTTRLPVPRAPANHQVVYTTLPAPPAQAPLRGTVMQAPAVRQVNPQNSVTVRVPQTTTYVVNNGLTLGSTGPQLTVHHRPPQVHTEPPRPVHPAPLPEAPQPQRLPPEAASTSLPQKPHLKLARVQSQNGIVLSWSVLEVDRSCATVDSYHLYAYHEEPSATVPSQWKKIGEVKALPLPMACTLTQFVSGSKYYFAVRAKDIYGRFGPFCDPQSTDVISSTQSS
